# The campaign covered roughly 410,000 compounds. About 18,000 (4.4%) were called active. Inconclusive results, whose numbers are uncertain, are shown with a selection of clear calls. Cut-off read from the data, not from the text of the source: active = activity change below about -60%; inconclusive = no clear call, values can overlap the other calls; inactive = above about -39%.
# Experiment: qHTS Assay for inhibitors of the human cytomegalovirus (HCMV)
# Details: HFF cells, HCMV-luciferase reporter, 72 h; at 57.5 µM; active compounds read low
# Summary of the method: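 Compounds were evaluated in HFFs infected with an HCMV luciferase reporter virus (MOI 1 PFU/cell). Luciferase in lysates collected 72 h post infection served as the replication measure.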
# % is set by controls: 0 for no effect and ±100 for the full control effect.
row,Compound,"activity change, negative = inhibition"
1,CCOC(=O)C1(CCOc2ccccc2)CCN(Cc2cccn2-c2cccnc2)CC1,active: -72.4%
2,Cc1ccc(S(=O)(=O)N2CCN(C(=O)CCOc3cc(C)ccc3C)CC2)cc1,inconclusive: -54.4%
3,CSc1ccc(C(=O)C2CCCN(C(=O)c3cc(C)n(C)n3)C2)cc1 (stereo not drawn),inconclusive: 0%
4,CCCCC(NC(=O)CCc1c(C)c2cc3c4c(oc3c(C)c2oc1=O)CCCC4)C(=O)O (stereo not drawn),inconclusive: -55.1%
5,O=C(N/N=C/c1coc2ccccc2c1=O)c1cn(-c2ccccc2)nc1-c1ccccc1,inconclusive: -50.6%
6,COc1ccc(NS(=O)(=O)c2ccc(N3CCCC3)c(NC(=S)Nc3cccc(C)c3C)c2)cc1,inconclusive: -43.7%
7,C/C=C/c1ccc(OCC(O)CNCCc2ccc(OC)cc2)c(OC)c1 (stereo not drawn),inconclusive: -44.4%
8,C=C1CCC[C@]2(C)C[C@H]3OC(=O)C(CN4CCOCC4)[C@H]3C[C@@H]12 (stereo partly drawn),inconclusive: -51.2%
9,COc1ccccc1Nc1nc(-c2sc(N)nc2C)cs1,inactive: -26.1%
10,COc1ccc(-c2noc(N3CCC(C(=O)N(C)c4ccccc4)CC3)n2)cc1,inactive: -18.9%
11,O=c1cc(CCl)nc2sc3ccccc3n12,inconclusive: -58.9%
12,O=C(CN1CCN(Cc2ccc(Cl)cc2)CC1)N/N=C/c1cccc(F)c1,inconclusive: -41.1%
13,CCN(CCCl)c1cc(CN(C)C)cc(NC(=O)c2ccc(C(=O)Nc3cc(CN(C)C)cc(N(CC)CCCl)c3)cc2)c1,active: -101%
14,Cc1ccc(NC(=S)NCc2cccs2)cc1,inactive: 39.9%
15,CCc1cccc(C)c1NC(=O)CCn1c(=O)c2cccn2c2ccccc21,inconclusive: -44.7%
16,CCOc1ccc(N2Nc3n[nH]c(N)c3N2)cc1,inactive: 39.3%
17,CCOC(=O)C1=C(c2ccccc2)N=C2SCC(=O)N2C1c1ccc(OCC)c(OCC)c1 (stereo not drawn),inactive: 14.4%
18,CCCCc1ccc(S(=O)(=O)N/N=C(/C)c2ccncc2)cc1,inconclusive: -54.3%
19,Cc1cc(NS(=O)(=O)c2ccccc2)c(C)c(Cl)c1O,inconclusive: -51.9%
20,CCOC(=O)C1=CCN(S(=O)(=O)c2ccc(Cl)cc2)C1c1cccc(C)c1 (stereo not drawn),active: -86.7%
21,O=C(O)C(O)C(O)C(O)C(O)C(=O)O (stereo not drawn) (tested in a mixture with another compound),inconclusive: -40.5%
22,COc1ccc(NC(=O)c2ccco2)cc1NC(=O)COc1ccc(Cl)c(C)c1,inactive: -6.22%

row,Compound,"activity change, negative = inhibition"
1,Nc1[nH]nc2ncc3cc4ccccc4nc3c12,inconclusive: -48.2%
2,COc1ccc(-c2ccc(-c3nnn(CC(C)=O)n3)cc2)cc1,inconclusive: -53.3%
3,COc1ccc(CCNC(=O)c2ccc(F)c(S(=O)(=O)N3CCCCC3)c2)cc1,inconclusive: -44.4%
4,CCCNC(=O)COC(=O)c1ccccc1C(=O)N(C)C1CCCCC1,inconclusive: -53%
5,CC1(c2ccccc2)NC(=O)N(CC(=O)Nc2ccc(C(N)=O)cc2)C1=O (stereo not drawn),active: -62.2%
6,N#CC1=C2N=C(N)c3ccccc3N2C2=C(C(=O)CCC2)C1c1cccc(Cl)c1 (stereo not drawn),active: -69.8%
7,CC(C)NC(=O)C1(C)CN(S(C)(=O)=O)CC(=O)N1Cc1ccc2c(c1)OCO2 (stereo not drawn),inactive: -18.3%
8,CCCCNc1nc(=S)n(-c2ccccc2)c(C)c1C(C)=O,active: -98.7%
9,Cc1ccc(Cl)cc1-n1ncc2c(NCCCc3ccccc3)ncnc21,inconclusive: -41.6%
10,O=C(NC1CCCc2c1cnn2-c1ccc(F)cc1F)c1ccccc1N1CCOCC1 (stereo not drawn),active: -75.2%
11,Cc1ccc(/C(=N/Nc2ncnc3ccccc23)C(=O)O)cc1,inactive: 125%
12,O=C(CN(C(=O)CSc1nc2ccccc2o1)c1ccccc1)NC1CCCCC1,inconclusive: -43.2%
13,COc1ccc(C2C(C(=O)NC(C)C)c3ccccc3C(=O)N2C)cc1OC (stereo not drawn),inactive: -34.7%
14,Cc1ccc(C2(c3ccc(C)cc3)CC2C(=O)Nc2ccc([N+](=O)[O-])cc2O)cc1 (stereo not drawn),active: -102%
15,COc1cccc(NC(=O)n2nc(N)cc2-c2ccc(Cl)cc2)c1,inconclusive: -40.1%
16,CC1CCN(C(=O)c2scc3c2OCCO3)CC1,active: -63.2%
17,COc1ccc(-n2ncc3c2CC(C)(C)CC3NC(=O)CSc2ccccn2)cc1 (stereo not drawn),inconclusive: -53.3%
18,Cc1ccc(N2CCN(S(=O)(=O)c3ccc4c(c3)oc(=O)n4C)CC2C)cc1 (stereo not drawn),inconclusive: -49%
19,COc1ccc(CCN2CC(C(=O)N(C)C3CCOCC3)CCC2=O)cc1 (stereo not drawn),inactive: 39.4%
20,CSc1nc(Sc2ccc(Cl)cc2)c2ccccc2n1,inactive: -19.8%
21,Cc1ccc([N+](=O)[O-])cc1Nc1nc(N2CCOCC2)nc(N2CCOCC2)n1,active: -69.6%

# Three entries picked at random from the list so far:
row,Compound,"activity change, negative = inhibition"
15,CCc1cccc(C)c1NC(=O)CCn1c(=O)c2cccn2c2ccccc21,inconclusive: -44.7%
11,Cc1ccc(/C(=N/Nc2ncnc3ccccc23)C(=O)O)cc1,inactive: 125%
8,C=C1CCC[C@]2(C)C[C@H]3OC(=O)C(CN4CCOCC4)[C@H]3C[C@@H]12 (stereo partly drawn),inconclusive: -51.2%
